PubChem BioAssay AID1508597 | Cure First, 2020
Assay: 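Genes whose silencing sensitises or protects ovarian cancer cells against rucaparib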 (primary screen). Cells: human ovarian carcinoma lines grown from tumours: OCI-P5x (papillary serous) and OCI-C5x (clear cell). Knock-down reagent: siRNA pool against human genes, 1.25 pmol siRNA per well. Duration: 72 h or 96 h, depending on the cell culture. Conditions: rucaparib 20 µM (about IC30) or vehicle, present until read-out. Rucaparib or vehicle: Rucaparib. Cell line: OCI-P5x (serous). Detection: 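Luminescent ATP-based viability assay read 72 or 96 h after transfection, depending on culture, given as normalised percent viability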. Direction: viability, normalised: higher = more viable cells remaining. Rule for the call: 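Active when normalised viability falls below 80 percent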. Meaning of the calls: active = viability under 80%; inactive = viability 80% or more.
This is a random part of the about 2,100 reagents, in one setting of the screen. 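Calls flag viability under 80% in either arm, not effects specific to rucaparib; the reference for percent is not stated.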 Unmarked entries are inactive. A reagent listed more than once was tested more than once; the source does not tell the runs apart. Not stated in the record: the 100% reference.

no.	target gene	PubChem SID	technical replicate	viability, normalised (%)
1	RRM1 (ribonucleotide reductase catalytic subunit M1)	SID405528428	1	64.8 (active)
2	RRM1 (ribonucleotide reductase catalytic subunit M1)	SID405528428	2	78.3 (active)
3	RRM1 (ribonucleotide reductase catalytic subunit M1)	SID405528428	3	57.7 (active)
4	BAZ1B (bromodomain adjacent to zinc finger domain 1B)	SID405528017	1	64.7 (active)
5	BAZ1B (bromodomain adjacent to zinc finger domain 1B)	SID405528017	2	64.5 (active)
6	BAZ1B (bromodomain adjacent to zinc finger domain 1B)	SID405528017	3	66.6 (active)
7	FGFR2 (fibroblast growth factor receptor 2)	SID405526784	1	66.1 (active)
8	FGFR2 (fibroblast growth factor receptor 2)	SID405526784	1	72.4 (active)
9	FGFR2 (fibroblast growth factor receptor 2)	SID405526784	2	66.2 (active)
10	FGFR2 (fibroblast growth factor receptor 2)	SID405526784	2	68.9 (active)
11	FGFR2 (fibroblast growth factor receptor 2)	SID405526784	3	77.6 (active)
12	FGFR2 (fibroblast growth factor receptor 2)	SID405526784	3	63.4 (active)
13	ULK2 (unc-51 like autophagy activating kinase 2)	SID405527885	1	79.3 (active)
14	ULK2 (unc-51 like autophagy activating kinase 2)	SID405527885	2	67.6 (active)
15	ULK2 (unc-51 like autophagy activating kinase 2)	SID405527885	3	73.4 (active)
16	TAF6L (TATA-box binding protein associated factor 6 like)	SID405526528	1	74.2 (active)
17	TAF6L (TATA-box binding protein associated factor 6 like)	SID405526528	2	74.1 (active)
18	TAF6L (TATA-box binding protein associated factor 6 like)	SID405526528	3	67 (active)
19	ACVR1C (activin A receptor type 1C)	SID405527390	1	123
20	ACVR1C (activin A receptor type 1C)	SID405527390	2	123
21	ACVR1C (activin A receptor type 1C)	SID405527390	3	106
22	BCORL1 (BCL6 corepressor like 1)	SID405528028	1	53.6 (active)
23	BCORL1 (BCL6 corepressor like 1)	SID405528028	2	71 (active)
24	BCORL1 (BCL6 corepressor like 1)	SID405528028	3	75.9 (active)
25	PAF1 (PAF1 component of Paf1/RNA polymerase II complex)	SID405526347	1	71.9 (active)
26	PAF1 (PAF1 component of Paf1/RNA polymerase II complex)	SID405526347	2	55.2 (active)
27	PAF1 (PAF1 component of Paf1/RNA polymerase II complex)	SID405526347	3	82
28	CEBPG (CCAAT enhancer binding protein gamma)	SID405528093	1	60.6 (active)
29	CEBPG (CCAAT enhancer binding protein gamma)	SID405528093	2	74.9 (active)
30	CEBPG (CCAAT enhancer binding protein gamma)	SID405528093	3	71.5 (active)
31	PRDM2 (PR/SET domain 2)	SID405527187	1	48 (active)
32	PRDM2 (PR/SET domain 2)	SID405527187	2	58 (active)
33	PRDM2 (PR/SET domain 2)	SID405527187	3	45 (active)
34	USP1 (ubiquitin specific peptidase 1)	SID405528431	1	48.7 (active)
35	USP1 (ubiquitin specific peptidase 1)	SID405528431	2	58.4 (active)
36	USP1 (ubiquitin specific peptidase 1)	SID405528431	3	41.5 (active)
37	KALRN (kalirin RhoGEF kinase)	SID405527450	1	133
38	KALRN (kalirin RhoGEF kinase)	SID405527450	2	121
39	KALRN (kalirin RhoGEF kinase)	SID405527450	3	124

Reprinted from the entries so far, 2 entries:
no.	target gene	PubChem SID	technical replicate	viability, normalised (%)
11	FGFR2 (fibroblast growth factor receptor 2)	SID405526784	3	77.6 (active)
12	FGFR2 (fibroblast growth factor receptor 2)	SID405526784	3	63.4 (active)
